The results in this text go back to publication PMC8881624.

By UniProt entry, the sequences of proteins in these tests, tags left out. Where a name states a change or a piece, a line headed by the entry shows the natural chain unless it says otherwise.
UniProt Q9USL2: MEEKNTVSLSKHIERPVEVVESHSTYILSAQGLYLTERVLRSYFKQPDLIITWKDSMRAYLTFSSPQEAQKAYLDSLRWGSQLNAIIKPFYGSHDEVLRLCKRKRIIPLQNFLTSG
UniProt O59855: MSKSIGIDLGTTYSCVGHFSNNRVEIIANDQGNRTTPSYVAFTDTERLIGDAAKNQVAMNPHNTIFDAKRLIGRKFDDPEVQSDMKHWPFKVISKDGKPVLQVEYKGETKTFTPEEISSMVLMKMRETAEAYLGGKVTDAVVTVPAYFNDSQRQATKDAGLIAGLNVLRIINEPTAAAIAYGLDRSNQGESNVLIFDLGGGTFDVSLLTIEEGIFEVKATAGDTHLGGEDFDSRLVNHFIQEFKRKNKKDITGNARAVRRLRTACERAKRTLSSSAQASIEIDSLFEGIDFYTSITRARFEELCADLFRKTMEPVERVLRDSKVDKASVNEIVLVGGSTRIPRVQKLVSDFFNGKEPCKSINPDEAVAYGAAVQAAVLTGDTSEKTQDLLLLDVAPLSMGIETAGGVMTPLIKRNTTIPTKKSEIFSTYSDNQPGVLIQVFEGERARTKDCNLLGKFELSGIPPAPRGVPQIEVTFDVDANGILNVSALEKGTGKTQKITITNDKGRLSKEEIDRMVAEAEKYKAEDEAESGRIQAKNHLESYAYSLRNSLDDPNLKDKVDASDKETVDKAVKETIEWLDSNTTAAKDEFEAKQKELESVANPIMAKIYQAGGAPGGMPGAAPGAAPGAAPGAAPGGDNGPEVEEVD

These are yes or no findings as the source states them, for the method shown. In cells and extracts the contact can be indirect. Here binding means that the protein was enriched with, or labelled near, the bait; the list need not be complete. A no says only that the protein was not detected with the bait. Where a sequence is shown, tags or fusion partners need not be part of it.

B1: Lsm4, endogenous (protein, UniProt O14352 1-121)
chain: MLPLTLLNATQGRPILVELKNGETFNGHLENCDNYMNLTLREVIRTMPDGDKFFRLPECYIRGNNIKYLRIQDEVLSQVAKQQAQQRENRGSRFRGRGQRGRGNYGHTAPNRRGRGRGGHM

The test concerns the target T1, 3xFLAG-Pof8 (S. pombe) (UniProt O13795).
T1 sequence: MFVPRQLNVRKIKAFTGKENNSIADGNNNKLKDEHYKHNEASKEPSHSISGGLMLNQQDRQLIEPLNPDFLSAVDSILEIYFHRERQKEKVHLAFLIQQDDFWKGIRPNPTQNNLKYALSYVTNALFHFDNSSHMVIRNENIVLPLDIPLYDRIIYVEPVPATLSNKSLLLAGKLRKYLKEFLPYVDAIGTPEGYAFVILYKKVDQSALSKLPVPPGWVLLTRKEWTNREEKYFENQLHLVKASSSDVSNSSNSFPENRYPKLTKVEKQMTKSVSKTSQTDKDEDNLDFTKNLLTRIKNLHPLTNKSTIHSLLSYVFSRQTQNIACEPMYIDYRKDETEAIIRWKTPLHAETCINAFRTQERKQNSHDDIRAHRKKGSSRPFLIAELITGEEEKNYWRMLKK
Description: affinity purification with mass spectrometry; 3xFLAG-Pof8 precipitated on anti-FLAG agarose from S. pombe cell-free extract (50 mM Tris-HCl pH 7.5, 150 mM NaCl, 0.1% NP40, 10% glycerol; 8 h at 4 °C; washes with 250 mM NaCl), eluted with 3x FLAG peptide, MudPIT; untagged strain as control.
As to “Thc1 (SPCC18b5.09c), endogenous (from UniProt Q9USL2)”, the binding result is on record as “binds”.
For the molecule “heat-shock protein Ssa2 (from UniProt O59855 1-647)”, the binding result is given as “no binding”.
As to B1, the binding result is given as “binds”.
